Assay: Limits of detection and quantification of the fluorescence assay
Conditions: for LOD (limit of detection): analyte concentration 3 standard deviations above mean baseline fluorescence; for LOQ (limit of quantification): analyte concentration 10 standard deviations above mean baseline fluorescence
Description: Fluorescence intensity was monitored with increasing sugar concentration, e.g., 0-10 mM for receptor compounds 3 (250 μM) and 4 (250 μM) in 0.1 M sodium phosphate buffer, pH 7.4. Stock solutions of each boronic acid receptor compound (3, and 4) were initially prepared in DMS (1 mg/mL) and then diluted in sodium phosphate buffer to obtain the desired initial 2-fold concentration. Fluorescence measurements were conducted in a 96-well plate (Corning #3694) and to each well 30 μL of each receptor compound and sugar in buffer media was added in triplicate. Blank wells received 60 μL of buffer only. Baseline (Fo) well received receptor and buffer media. Measurements were performed using a Tecan Infinite M1000 instrument, a plate reader (gain 100, flashes 30, z-position 1.8 cm) Plates were shaken for 30 seconds (2 mm orbital amplitude) prior to reading. After blank subtraction, fluorescence intensity relative to initial baseline fluorescence was plotted with respect to increasing sugar concentration (FIG. 9, panels A and B). FIG. 9, panels A and B show normalized fluorescence response of compounds 3 and 4 in the presence of lactulose, mannitol, glucose, galactose and fructose in 0.1 M sodium phosphate buffer, pH 7.4 Excitation wavelength λex=340 nm and emission λem=435 nm was used for each receptor compound.
The limits of detection (LOD) and quantification (LOQ) were defined as the analyte concentration in which the fluorescence intensity in the assay was 3 and 10 standard deviations above the mean baseline fluorescence.

Row | SMILES | LOD (limit of detection) [µM] | LOQ (limit of quantification) [µM]
1 | OB(O)c1ccccc1C[n+]1ccc(-c2ccc3cc(-c4cc[n+](Cc5ccccc5B(O)O)cc4)ccc3c2)cc1 [Compound 3] | 100 | 200
2 | OB(O)c1ccccc1C[n+]1ccc(-c2ccc3ccc(-c4cc[n+](Cc5ccccc5B(O)O)cc4)cc3c2)cc1 [Compound 4] | 70 | 190
